The other results are listed elsewhere or left out.
Key:
Assay in all cases: log2 fold change, soluble protein after heating vs DMSO (PISA); higher = thermal stabilisation; K562 cells, 10 uM, 30 min; active = over 0.2 and 3.5 SD of the protein, either way, in both replicates (recomputed)
[1] = compound: COC1=CC=C(C=C1)CN2C=CC3=C2C=C(C=C3)C(=O)NO
In short: (§1)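 K562 cells at 2×10^6 cells/mL were given 10 μM compound for 30 min. Aliquots then went through 3 min of heating across 48°C-58°C, were pooled, and were extracted in PBS with 0.5% NP-40 at 4°C, and the supernatant after 21,000xg for 90 min was quantified by TMTpro 16plex LC-MS/MS with channel sums equalised. Thermal stability relative to control samples, from duplicates, is given as log2 fold change.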

Chains of the proteins cited; added tags and fusions are not shown. Lines headed by an entry give the natural chain unless they say otherwise; changes in a name come on top.
UniProt P23246: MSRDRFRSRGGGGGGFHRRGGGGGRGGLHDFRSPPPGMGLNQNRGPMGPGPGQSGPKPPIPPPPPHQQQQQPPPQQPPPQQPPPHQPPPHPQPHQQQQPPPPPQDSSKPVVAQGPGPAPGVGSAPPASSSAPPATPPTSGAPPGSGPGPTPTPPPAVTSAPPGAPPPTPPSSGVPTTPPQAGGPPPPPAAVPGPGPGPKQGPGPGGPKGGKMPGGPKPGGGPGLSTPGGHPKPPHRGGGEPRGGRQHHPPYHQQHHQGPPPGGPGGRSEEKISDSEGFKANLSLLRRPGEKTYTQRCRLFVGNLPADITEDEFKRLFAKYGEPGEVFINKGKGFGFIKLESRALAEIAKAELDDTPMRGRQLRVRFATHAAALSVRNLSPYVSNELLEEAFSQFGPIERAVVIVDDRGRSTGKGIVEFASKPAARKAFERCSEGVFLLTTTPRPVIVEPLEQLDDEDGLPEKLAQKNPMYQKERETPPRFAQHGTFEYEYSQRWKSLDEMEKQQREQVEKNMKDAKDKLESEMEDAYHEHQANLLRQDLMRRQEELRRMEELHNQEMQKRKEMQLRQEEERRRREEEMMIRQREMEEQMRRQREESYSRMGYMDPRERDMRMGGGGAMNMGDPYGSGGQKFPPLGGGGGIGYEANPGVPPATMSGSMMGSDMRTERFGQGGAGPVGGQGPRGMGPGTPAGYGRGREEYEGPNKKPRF
UniProt Q9BRV8: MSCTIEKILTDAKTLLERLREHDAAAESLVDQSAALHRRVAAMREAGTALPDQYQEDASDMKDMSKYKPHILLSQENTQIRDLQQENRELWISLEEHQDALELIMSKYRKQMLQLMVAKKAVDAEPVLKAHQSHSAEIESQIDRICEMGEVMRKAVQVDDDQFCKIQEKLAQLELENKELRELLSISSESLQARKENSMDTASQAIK
UniProt Q9BX95: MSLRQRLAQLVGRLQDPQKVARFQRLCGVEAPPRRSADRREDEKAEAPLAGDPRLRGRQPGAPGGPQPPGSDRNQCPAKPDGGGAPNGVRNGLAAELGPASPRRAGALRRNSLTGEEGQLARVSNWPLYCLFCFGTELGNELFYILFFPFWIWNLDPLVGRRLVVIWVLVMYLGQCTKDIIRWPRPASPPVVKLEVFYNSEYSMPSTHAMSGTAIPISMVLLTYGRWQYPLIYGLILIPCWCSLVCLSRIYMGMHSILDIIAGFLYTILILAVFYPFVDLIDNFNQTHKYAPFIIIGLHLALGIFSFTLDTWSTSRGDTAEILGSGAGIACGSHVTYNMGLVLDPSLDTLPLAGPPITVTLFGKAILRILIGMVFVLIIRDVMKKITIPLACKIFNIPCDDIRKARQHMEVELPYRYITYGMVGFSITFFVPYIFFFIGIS
UniProt Q68CR1: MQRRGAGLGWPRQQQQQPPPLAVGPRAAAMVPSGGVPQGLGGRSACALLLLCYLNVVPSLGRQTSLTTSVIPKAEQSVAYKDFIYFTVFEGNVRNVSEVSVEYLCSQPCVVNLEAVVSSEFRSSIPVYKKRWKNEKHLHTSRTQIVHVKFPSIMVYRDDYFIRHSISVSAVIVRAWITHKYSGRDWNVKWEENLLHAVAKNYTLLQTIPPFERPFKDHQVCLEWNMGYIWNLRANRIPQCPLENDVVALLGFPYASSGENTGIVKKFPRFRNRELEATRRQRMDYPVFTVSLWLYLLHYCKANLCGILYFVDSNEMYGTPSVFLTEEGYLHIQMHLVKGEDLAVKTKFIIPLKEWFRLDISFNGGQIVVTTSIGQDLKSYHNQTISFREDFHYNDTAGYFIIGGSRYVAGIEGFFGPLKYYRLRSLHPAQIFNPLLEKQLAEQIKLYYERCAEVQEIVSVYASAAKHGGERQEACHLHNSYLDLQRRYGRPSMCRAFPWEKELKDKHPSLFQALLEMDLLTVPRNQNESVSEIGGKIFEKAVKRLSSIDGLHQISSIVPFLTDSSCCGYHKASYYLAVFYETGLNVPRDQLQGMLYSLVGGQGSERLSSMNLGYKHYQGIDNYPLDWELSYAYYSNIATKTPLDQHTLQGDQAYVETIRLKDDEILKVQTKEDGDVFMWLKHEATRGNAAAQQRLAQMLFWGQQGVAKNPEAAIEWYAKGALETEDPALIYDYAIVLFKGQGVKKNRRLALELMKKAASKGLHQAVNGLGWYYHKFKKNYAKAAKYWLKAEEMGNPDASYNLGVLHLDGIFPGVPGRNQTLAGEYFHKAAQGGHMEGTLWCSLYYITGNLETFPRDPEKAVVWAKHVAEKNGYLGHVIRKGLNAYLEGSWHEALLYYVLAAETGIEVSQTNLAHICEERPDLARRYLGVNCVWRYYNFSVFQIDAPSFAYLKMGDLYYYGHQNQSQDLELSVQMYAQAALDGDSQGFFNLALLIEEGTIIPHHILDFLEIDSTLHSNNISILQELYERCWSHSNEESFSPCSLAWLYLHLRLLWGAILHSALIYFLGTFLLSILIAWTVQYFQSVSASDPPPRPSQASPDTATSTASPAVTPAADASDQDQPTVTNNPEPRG
UniProt Q9UGK8: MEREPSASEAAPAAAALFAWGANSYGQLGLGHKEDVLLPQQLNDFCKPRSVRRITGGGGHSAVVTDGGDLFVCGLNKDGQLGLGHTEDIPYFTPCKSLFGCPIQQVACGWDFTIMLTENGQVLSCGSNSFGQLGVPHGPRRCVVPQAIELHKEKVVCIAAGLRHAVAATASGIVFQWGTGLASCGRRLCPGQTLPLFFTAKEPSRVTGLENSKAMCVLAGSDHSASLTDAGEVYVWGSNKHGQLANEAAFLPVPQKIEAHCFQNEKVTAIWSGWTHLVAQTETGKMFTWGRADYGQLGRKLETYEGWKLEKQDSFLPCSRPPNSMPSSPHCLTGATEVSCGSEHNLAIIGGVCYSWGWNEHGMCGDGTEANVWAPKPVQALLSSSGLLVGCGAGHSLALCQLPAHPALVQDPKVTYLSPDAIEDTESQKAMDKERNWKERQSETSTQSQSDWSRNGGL
UniProt P31947: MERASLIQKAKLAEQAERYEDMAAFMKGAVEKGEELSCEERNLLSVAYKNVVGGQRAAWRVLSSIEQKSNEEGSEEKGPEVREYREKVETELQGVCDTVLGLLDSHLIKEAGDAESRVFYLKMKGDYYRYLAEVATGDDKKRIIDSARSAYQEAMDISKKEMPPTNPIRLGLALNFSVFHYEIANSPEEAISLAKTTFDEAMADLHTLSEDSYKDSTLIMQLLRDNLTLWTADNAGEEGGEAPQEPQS
UniProt Q99442: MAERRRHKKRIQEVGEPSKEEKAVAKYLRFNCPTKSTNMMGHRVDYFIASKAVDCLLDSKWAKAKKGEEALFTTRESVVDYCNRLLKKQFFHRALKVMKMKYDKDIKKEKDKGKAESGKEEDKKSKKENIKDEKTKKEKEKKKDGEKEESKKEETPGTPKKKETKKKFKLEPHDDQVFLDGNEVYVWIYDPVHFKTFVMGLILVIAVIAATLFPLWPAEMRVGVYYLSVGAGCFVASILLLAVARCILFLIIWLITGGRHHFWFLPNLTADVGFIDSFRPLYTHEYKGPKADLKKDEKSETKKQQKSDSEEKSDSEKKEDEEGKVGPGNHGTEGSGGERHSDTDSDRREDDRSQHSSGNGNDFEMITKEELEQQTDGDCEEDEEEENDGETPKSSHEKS
UniProt Q9H9S3, whole entry, looked up: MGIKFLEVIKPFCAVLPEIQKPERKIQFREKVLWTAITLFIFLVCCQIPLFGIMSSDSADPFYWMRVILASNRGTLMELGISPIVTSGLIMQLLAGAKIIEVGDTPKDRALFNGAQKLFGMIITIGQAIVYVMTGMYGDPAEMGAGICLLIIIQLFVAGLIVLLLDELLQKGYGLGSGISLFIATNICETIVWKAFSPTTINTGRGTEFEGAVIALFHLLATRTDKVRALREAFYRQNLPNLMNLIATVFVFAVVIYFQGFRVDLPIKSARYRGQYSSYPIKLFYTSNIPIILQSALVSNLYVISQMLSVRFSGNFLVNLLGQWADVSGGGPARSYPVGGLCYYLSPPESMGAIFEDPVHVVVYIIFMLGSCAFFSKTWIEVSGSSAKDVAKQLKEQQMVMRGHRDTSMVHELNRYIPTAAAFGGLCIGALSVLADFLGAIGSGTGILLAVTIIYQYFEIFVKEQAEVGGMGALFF
UniProt Q96ES7: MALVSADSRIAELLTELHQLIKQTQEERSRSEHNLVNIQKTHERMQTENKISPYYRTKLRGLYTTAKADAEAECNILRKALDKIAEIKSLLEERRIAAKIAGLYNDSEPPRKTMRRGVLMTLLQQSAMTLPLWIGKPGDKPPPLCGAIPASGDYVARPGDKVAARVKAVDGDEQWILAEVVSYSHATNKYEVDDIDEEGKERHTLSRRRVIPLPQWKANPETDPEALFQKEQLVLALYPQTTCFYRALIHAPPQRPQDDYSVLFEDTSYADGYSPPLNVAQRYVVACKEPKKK
UniProt P29353: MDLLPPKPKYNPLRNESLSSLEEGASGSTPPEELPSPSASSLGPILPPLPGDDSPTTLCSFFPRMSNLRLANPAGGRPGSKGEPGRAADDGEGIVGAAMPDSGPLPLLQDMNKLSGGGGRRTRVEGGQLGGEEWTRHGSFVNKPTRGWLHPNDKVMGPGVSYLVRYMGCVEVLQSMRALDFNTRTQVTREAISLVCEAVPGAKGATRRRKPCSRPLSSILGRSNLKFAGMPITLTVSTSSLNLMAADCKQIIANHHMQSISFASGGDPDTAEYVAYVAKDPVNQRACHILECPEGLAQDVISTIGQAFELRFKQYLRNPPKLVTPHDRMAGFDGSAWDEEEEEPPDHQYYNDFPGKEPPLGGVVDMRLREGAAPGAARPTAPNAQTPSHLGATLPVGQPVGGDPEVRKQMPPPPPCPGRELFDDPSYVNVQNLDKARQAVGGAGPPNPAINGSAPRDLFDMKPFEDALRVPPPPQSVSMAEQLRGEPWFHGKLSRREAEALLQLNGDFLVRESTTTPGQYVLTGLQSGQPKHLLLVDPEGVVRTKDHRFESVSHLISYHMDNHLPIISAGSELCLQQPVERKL
UniProt Q96FS4: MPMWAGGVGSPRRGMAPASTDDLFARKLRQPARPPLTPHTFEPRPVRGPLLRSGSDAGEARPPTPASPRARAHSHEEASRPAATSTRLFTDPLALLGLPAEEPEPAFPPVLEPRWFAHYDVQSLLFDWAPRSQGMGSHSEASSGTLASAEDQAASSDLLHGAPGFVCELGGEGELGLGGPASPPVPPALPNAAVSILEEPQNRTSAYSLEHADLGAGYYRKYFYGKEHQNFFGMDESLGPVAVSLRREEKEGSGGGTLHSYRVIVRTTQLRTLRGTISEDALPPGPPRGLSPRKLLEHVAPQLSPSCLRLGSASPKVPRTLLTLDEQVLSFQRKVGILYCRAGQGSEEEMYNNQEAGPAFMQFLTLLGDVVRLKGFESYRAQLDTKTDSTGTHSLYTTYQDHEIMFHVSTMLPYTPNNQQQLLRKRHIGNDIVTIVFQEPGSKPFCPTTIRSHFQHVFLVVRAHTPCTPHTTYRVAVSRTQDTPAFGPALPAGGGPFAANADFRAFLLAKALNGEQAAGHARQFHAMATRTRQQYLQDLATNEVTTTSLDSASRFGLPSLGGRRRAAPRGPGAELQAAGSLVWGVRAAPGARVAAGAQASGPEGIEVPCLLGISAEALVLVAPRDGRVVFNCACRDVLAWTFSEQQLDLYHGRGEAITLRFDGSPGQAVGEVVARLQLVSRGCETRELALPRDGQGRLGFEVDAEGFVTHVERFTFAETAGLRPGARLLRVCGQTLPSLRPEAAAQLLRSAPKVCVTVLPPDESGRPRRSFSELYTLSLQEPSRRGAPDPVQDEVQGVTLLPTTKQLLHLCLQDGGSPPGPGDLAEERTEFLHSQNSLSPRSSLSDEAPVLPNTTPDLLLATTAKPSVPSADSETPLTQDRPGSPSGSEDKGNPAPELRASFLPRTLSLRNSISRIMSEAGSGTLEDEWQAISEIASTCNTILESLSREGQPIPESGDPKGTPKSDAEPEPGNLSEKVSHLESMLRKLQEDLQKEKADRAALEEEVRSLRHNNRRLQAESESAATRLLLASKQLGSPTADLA
UniProt P50453: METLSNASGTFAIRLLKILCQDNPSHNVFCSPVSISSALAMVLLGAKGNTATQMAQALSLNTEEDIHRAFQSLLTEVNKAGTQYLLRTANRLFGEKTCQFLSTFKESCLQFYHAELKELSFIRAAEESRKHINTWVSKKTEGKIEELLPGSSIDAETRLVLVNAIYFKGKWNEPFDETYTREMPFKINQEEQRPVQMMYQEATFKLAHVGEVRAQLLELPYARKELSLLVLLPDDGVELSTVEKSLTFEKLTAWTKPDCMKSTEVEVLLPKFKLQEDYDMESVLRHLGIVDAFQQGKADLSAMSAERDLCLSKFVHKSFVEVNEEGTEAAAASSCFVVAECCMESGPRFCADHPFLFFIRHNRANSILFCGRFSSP

[2] = compound: CON(C)C(=O)N1N=C(c2cc(F)ccc2F)S[C@@]1(CCCN)c1ccccc1 [filanesib]
In short: as §1

[3] = compound: CO[C@H]1C[C@@H]2CC[C@@H](C)[C@@](O)(O2)C(=O)C(=O)N2CCCC[C@H]2C(=O)O[C@H]([C@H](C)C[C@@H]2CC[C@H](n3cnnn3)[C@H](OC)C2)CC(=O)[C@H](C)/C=C(\C)[C@@H](O)[C@@H](OC)C(=O)[C@H](C)C[C@H](C)/C=C/C=C/C=C/1C [zotarolimus]
In short: as §1

[4] = compound: COc1cc(C(=O)O)ccc1NC(=O)[C@@H]1N[C@@H](CC(C)(C)C)[C@](C#N)(c2ccc(Cl)cc2F)[C@H]1c1cccc(Cl)c1F [idasanutlin]
In short: as §1

[5] = compound: COc1cc(Nc2ncc3c(n2)-c2ccc(Cl)cc2C(c2c(F)cccc2OC)=NC3)ccc1C(=O)O [alisertib]
In short: as §1

[6] = compound: COc1cc2nc(-c3cc(F)ccc3O)nc(N[C@@H]3CNC[C@H]3C(C)(C)O)c2cc1OC
In short: as §1

[7] = compound: COc1cc2ncnc(Nc3ccc(F)c(Cl)c3)c2cc1OCCCN1CCOCC1 [gefitinib]
In short: as §1

[8] = compound: COc1cccc2cc(-c3nc([C@H]4CC[C@H](C(=O)O)CC4)n4ncnc(N)c34)[nH]c12
In short: as §1

[9] = compound: CS(=O)(=O)CCNCc1ccc(-c2ccc3ncnc(Nc4ccc(OCc5cccc(F)c5)c(Cl)c4)c3c2)o1 [lapatinib]
In short: as §1

[10] = compound: CS(=O)(=O)N1CCN(Cc2cc3nc(-c4cccc5[nH]ncc45)nc(N4CCOCC4)c3s2)CC1 [pictilisib]
In short: as §1

[11] = compound: CS(=O)(=O)c1ccc(-c2cnc(N)c(C(=O)Nc3ccccc3)n2)cc1
In short: as §1

[12] = compound: C[C@@H](Oc1cc(-c2cnn(C3CCNCC3)c2)cnc1N)c1c(Cl)ccc(F)c1Cl [crizotinib]
In short: as §1

[13] = compound: C[C@@H]1COCCN1C2=NC(=NC(=C2)C3(CC3)S(=O)(=O)C)C4=C5C=CNC5=CC=C4
In short: as §1

[14] = compound: C[C@H](C1=CC=C(C=C1)C(=O)NC2=C3C=CNC3=NC=C2)N
In short: as §1

[15] = compound: C[C@H](Nc1ncnc2nc[nH]c12)c1cc2cccc(Cl)c2c(=O)n1-c1ccccc1 [duvelisib]
In short: as §1

[16] = compound: Cc1cc(Nc2cc(CN3CCOCC3)c3nc(C)c(Cc4ccc(Cl)cc4F)n3n2)n[nH]1 [gandotinib]
In short: as §1

[17] = compound: Cc1cc(Nc2cc(N3CCN(C)CC3)nc(Sc3ccc(NC(=O)C4CC4)cc3)n2)n[nH]1 [tozasertib]
In short: as §1

[18] = compound: Cc1cc(SCc2sc(-c3ccc(C(F)(F)F)cc3)nc2C)ccc1OCC(=O)O
In short: as §1

[19] = compound: Cc1ccc(-n2nc(C(C)(C)C)cc2NC(=O)Nc2ccc(OCCN3CCOCC3)c3ccccc23)cc1 [doramapimod]
In short: as §1

[20] = compound: Cc1ccc(C(=O)N(CCCN)[C@@H](c2nc3cc(Cl)ccc3c(=O)n2Cc2ccccc2)C(C)C)cc1 [ispinesib]
In short: as §1

Measured: log2 fold change

SFPQ (UniProt P23246)
inactive: [1] -0.044 | [2] 0.246 | [3] -0.004 | [4] 0.141 | [5] -0.048 | [6] -0.05 | [7] 0.007 | [8] -0.078 | [9] 0.029 | [10] -0.052 | [11] -0.055 | [12] 0.008 | [13] -0.164 | [14] 0.123 | [15] -0.03 | [16] 0.046 | [17] 0.058 | [18] 0.026 | [19] 0.041 | [20] -0.075

SIKE1 (UniProt Q9BRV8)
inactive: [1] -0.071 | [2] 0.02 | [3] 0.052 | [4] 0.03 | [5] 0.324 | [6] 0.045 | [7] 0.11 | [8] 0.151 | [9] -0.022 | [10] 0.036 | [11] 0.048 | [12] 0.084 | [13] -0.09 | [14] -0.024 | [15] 0.098 | [16] 0.018 | [17] 0.011 | [18] 0.045 | [19] 0.019 | [20] -0.041

SETDB1 (UniProt Q15047)
inactive: [1] 0.207 | [2] 0.027 | [3] 0.013 | [4] -0.051 | [5] -0.14 | [6] 0.303 | [7] 0.021 | [8] 0.018 | [9] -0.063 | [10] 0.15 | [11] 0.052 | [12] 0.02 | [13] 0.054 | [14] -0.013 | [15] 0.028 | [16] -0.073 | [17] -0.226 | [18] -0.021 | [19] 0.048 | [20] -0.085

SGPP1 (UniProt Q9BX95)
inactive: [1] -0.004 | [2] -0.246 | [3] -0.101 | [4] -0.069 | [5] 0.167 | [6] -0.276 | [7] 0.052 | [8] 0.151 | [9] 0.09 | [10] 0.04 | [11] -0.002 | [12] -0.041 | [13] 0.038 | [14] -0.106 | [15] 0 | [16] -0.215 | [17] -0.057 | [18] -0.03 | [19] 0.053

SEL1L3 (UniProt Q68CR1)
inactive: [1] -0.128 | [2] 0.11 | [3] 0.053 | [4] 0.085 | [5] -0.116 | [6] -0.074 | [7] 0.049 | [8] 0.073 | [9] 0.066 | [10] 0.011 | [11] -0.045 | [12] -0.02 | [13] 0.001 | [14] 0.161 | [15] 0.007 | [16] 0.05 | [17] -0.035 | [18] 0.093 | [19] 0.019 | [20] -0.08

SERGEF (UniProt Q9UGK8)
inactive: [1] -0.036 | [2] -0.043 | [3] 0.091 | [4] -0.068 | [5] -0.05 | [6] 0.083 | [7] -0.004 | [8] 0.015 | [9] -0.023 | [10] 0.086 | [11] 0.077 | [12] -0.111 | [13] 0.053 | [14] 0.013 | [15] 0.204 | [16] 0.04 | [17] -0.033 | [18] 0.058 | [19] -0.01 | [20] -0.156

SFN (UniProt P31947)
inactive: [1] -0.114 | [2] -0.029 | [3] -0.026 | [4] -0.06 | [5] 0.731 | [6] -0.016 | [7] -0.013 | [8] 0.013 | [9] -0.073 | [10] 0 | [11] 0.002 | [12] 0 | [13] 0.039 | [14] -0.029 | [15] 0.043 | [16] -0.077 | [17] 0.04 | [18] -0.05 | [19] -0.011 | [20] 0.033

SF3A2 (UniProt Q15428)
inactive: [1] -0.028 | [2] 0.162 | [3] 0.006 | [4] 0.017 | [5] -0.085 | [6] 0.038 | [7] -0.01 | [8] -0.09 | [9] 0.01 | [10] 0.078 | [11] 0.023 | [12] 0.064 | [13] -0.028 | [14] 0.081 | [15] 0.026 | [16] -0.1 | [17] 0.036 | [18] 0.031 | [19] 0.013 | [20] 0.105

SF1 isoform 6 (UniProt Q15637)
inactive: [1] 0.04 | [2] 0.074 | [3] 0.107 | [4] -0.08 | [5] 0.098 | [6] 0.054 | [7] -0.081 | [8] 0.091 | [9] -0.036 | [10] 0.054 | [11] 0.137 | [12] 0.027 | [13] -0.235 | [14] -0.142 | [15] -0.001 | [16] 0.045 | [17] -0.06 | [18] 0.037 | [19] 0.042 | [20] 0.022

SEC62 (UniProt Q99442)
inactive: [1] 0 | [2] 0.039 | [3] -0.008 | [4] 0.03 | [5] 0.015 | [6] 0.047 | [7] 0.015 | [8] -0.029 | [9] -0.042 | [10] 0.061 | [11] 0.001 | [12] 0.103 | [13] -0.032 | [14] -0.049 | [15] -0.01 | [16] 0.012 | [17] -0.003 | [18] -0.007 | [19] -0.06 | [20] 0.088

SEC61A2 (UniProt Q9H9S3)
inactive: [1] -0.007 | [2] -0.049 | [3] -0.042 | [4] -0.1 | [5] -0.016 | [6] -0.041 | [7] 0.023 | [8] 0.043 | [9] 0.022 | [10] -0.007 | [11] -0.025 | [12] 0.106 | [13] 0.056 | [14] -0.125 | [15] 0.015 | [16] -0.08 | [17] 0.035 | [18] -0.036 | [19] 0.004 | [20] 0.016

SGF29 (UniProt Q96ES7)
inactive: [1] -0.033 | [2] 0 | [3] -0.024 | [4] 0.014 | [5] -0.113 | [6] 0.014 | [7] 0.002 | [8] 0.038 | [9] 0.033 | [10] 0.003 | [11] -0.006 | [12] -0.042 | [13] -0.013 | [14] -0.018 | [15] 0.025 | [16] 0.011 | [17] -0.094 | [18] -0.014 | [19] 0.005 | [20] -0.011

SEPTIN7 (UniProt Q16181)
inactive: [1] 0.033 | [2] -0.026 | [3] 0.065 | [4] -0.043 | [5] -0.023 | [6] -0.099 | [7] 0.022 | [8] 0.012 | [9] 0.034 | [10] -0.054 | [11] 0.028 | [12] 0.007 | [13] 0.052 | [14] -0.135 | [15] -0.01 | [16] -0.099 | [17] -0.033 | [18] 0.034 | [19] -0.026 | [20] 0.128

SHC1 isoform 6 (UniProt P29353)
inactive: [1] -0.004 | [2] 0 | [3] -0.032 | [4] 0.005 | [5] -0.071 | [6] 0.011 | [7] 0.015 | [8] 0.032 | [9] -0.001 | [10] 0.053 | [11] -0.013 | [12] 0.011 | [13] 0.045 | [14] -0.04 | [15] 0.004 | [16] -0.014 | [17] 0.011 | [18] 0.019 | [19] -0.041 | [20] -0.022

Pulled one by one from the entries so far (2):
SHC1 isoform 6 (UniProt P29353)
inactive: [1] -0.004 | [2] 0 | [3] -0.032 | [4] 0.005 | [5] -0.071 | [6] 0.011 | [7] 0.015 | [8] 0.032 | [9] -0.001 | [10] 0.053 | [11] -0.013 | [12] 0.011 | [13] 0.045 | [14] -0.04 | [15] 0.004 | [16] -0.014 | [17] 0.011 | [18] 0.019 | [19] -0.041 | [20] -0.022

SEPTIN7 (UniProt Q16181)
inactive: [1] 0.033 | [2] -0.026 | [3] 0.065 | [4] -0.043 | [5] -0.023 | [6] -0.099 | [7] 0.022 | [8] 0.012 | [9] 0.034 | [10] -0.054 | [11] 0.028 | [12] 0.007 | [13] 0.052 | [14] -0.135 | [15] -0.01 | [16] -0.099 | [17] -0.033 | [18] 0.034 | [19] -0.026 | [20] 0.128

(cont.)

SIPA1 (UniProt Q96FS4)
inactive: [1] -0.108 | [2] 0.059 | [3] 0.025 | [4] 0.014 | [5] 0.069 | [6] -0.027 | [7] 0.041 | [8] -0.018 | [9] 0 | [10] -0.042 | [11] 0.001 | [12] -0.001 | [13] 0.012 | [14] 0.01 | [15] -0.014 | [16] 0.038 | [17] -0.02 | [18] 0.045 | [19] -0.028 | [20] -0.044

SERPINB9 (UniProt P50453)
inactive: [1] 0.028 | [2] -0.079 | [3] 0.009 | [4] -0.022 | [5] -0.076 | [6] -0.024 | [7] -0.017 | [8] 0.037 | [9] 0.007 | [10] 0 | [11] -0.01 | [12] 0.012 | [13] 0.055 | [14] -0.088 | [15] 0.018 | [16] 0.063 | [17] -0.011 | [18] -0.017 | [19] -0.034 | [20] 0.039
